{
  "source": "the supplement of paper PMC8728848",
  "assay_in_all_cases": "glycan array binding signal (z-score within array); higher = stronger binding",
  "conditions_in_all_cases": "glycan notation: IUPAC condensed, linker removed",
  "key": {"[1]": {"target": "Neu5Ac(a2-3)Gal", "summary_of_the_method": "(§1)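 Glycan array binding is given as a within-array Z-score, which can be read as non-binding when negative. The arrays, 3228 of them, came from the Consortium for Functional Glycomics database and were retained only where the protein sequence was available. Z-scores were averaged across arrays of the same protein sequence at different concentrations or buffers and across linkers.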"}, "[2]": {"target": "Neu5Ac(a2-3)Gal(b1-3)GalNAc", "summary_of_the_method": "as §1"}, "[3]": {"target": "Neu5Ac(a2-3)Gal(b1-3)GalNAc(b1-3)Gal(a1-4)Gal(b1-4)Glc", "summary_of_the_method": "as §1"}, "[4]": {"target": "Neu5Ac(a2-3)Gal(b1-3)GalNAc(b1-4)[Neu5Ac(a2-3)]Gal(b1-4)Glc", "summary_of_the_method": "as §1"}, "[5]": {"target": "Neu5Ac(a2-3)Gal(b1-3)GalNAc(b1-4)[Neu5Ac(a2-8)Neu5Ac(a2-3)]Gal(b1-4)Glc", "summary_of_the_method": "as §1"}, "[6]": {"target": "Neu5Ac(a2-3)Gal(b1-3)GalNAc6S", "summary_of_the_method": "as §1"}, "[7]": {"target": "Neu5Ac(a2-3)Gal(b1-3)GlcNAc", "summary_of_the_method": "as §1"}, "[8]": {"target": "Neu5Ac(a2-3)Gal(b1-3)GlcNAc(b1-2)Man", "summary_of_the_method": "as §1"}, "[9]": {"target": "Neu5Ac(a2-3)Gal(b1-3)GlcNAc(b1-2)Man(a1-3)[GlcNAc(b1-4)][Neu5Ac(a2-3)Gal(b1-3)GlcNAc(b1-2)Man(a1-6)]Man(b1-4)GlcNAc(b1-4)GlcNAc", "summary_of_the_method": "as §1"}, "[10]": {"target": "Neu5Ac(a2-3)Gal(b1-3)GlcNAc(b1-2)Man(a1-3)[Neu5Ac(a2-3)Gal(b1-3)GlcNAc(b1-2)Man(a1-6)]Man(b1-4)GlcNAc(b1-4)GlcNAc", "summary_of_the_method": "as §1"}, "[11]": {"target": "Neu5Ac(a2-3)Gal(b1-3)GlcNAc(b1-3)Gal(b1-3)GlcNAc", "summary_of_the_method": "as §1"}, "[12]": {"target": "Neu5Ac(a2-3)Gal(b1-3)GlcNAc(b1-3)Gal(b1-4)GlcNAc", "summary_of_the_method": "as §1"}, "[13]": {"target": "Neu5Ac(a2-3)Gal(b1-3)GlcNAc(b1-3)GalNAc", "summary_of_the_method": "as §1"}, "[14]": {"target": "Neu5Ac(a2-3)Gal(b1-3)GlcNAc(b1-4)Gal(b1-4)Glc", "summary_of_the_method": "as §1"}, "[15]": {"target": "Neu5Ac(a2-3)Gal(b1-3)GlcNAc(b1-6)GalNAc", "summary_of_the_method": "as §1"}, "[16]": {"target": "Neu5Ac(a2-3)Gal(b1-3)GlcNAc6S", "summary_of_the_method": "as §1"}, "[17]": {"target": "Neu5Ac(a2-3)Gal(b1-3)[Fuc(a1-4)]GlcNAc", "summary_of_the_method": "as §1"}, "[18]": {"target": "Neu5Ac(a2-3)Gal(b1-3)[Fuc(a1-4)]GlcNAc(b1-3)Gal(b1-3)[Fuc(a1-4)]GlcNAc", "summary_of_the_method": "as §1"}, "[19]": {"target": "Neu5Ac(a2-3)Gal(b1-3)[Fuc(a1-4)]GlcNAc(b1-3)Gal(b1-4)[Fuc(a1-3)]GlcNAc", "summary_of_the_method": "as §1"}, "[20]": {"target": "Neu5Ac(a2-3)Gal(b1-3)[GlcNAc(b1-6)]GalNAc", "summary_of_the_method": "as §1"}, "[21]": {"target": "Neu5Ac(a2-3)Gal(b1-3)[Neu5Ac(a2-6)]GalNAc", "summary_of_the_method": "as §1"}, "[22]": {"target": "Neu5Ac(a2-3)Gal(b1-3)[Neu5Ac(a2-6)]GlcNAc(b1-3)[Fuc(a1-3)[Gal(b1-4)]GlcNAc(b1-6)]Gal(b1-4)Glc", "summary_of_the_method": "as §1"}, "[23]": {"target": "Neu5Ac(a2-3)Gal(b1-3)]Neu5Ac(a2-3)Gal(b1-4)]GlcNAc", "summary_of_the_method": "as §1"}, "[24]": {"target": "Neu5Ac(a2-3)Gal(b1-4)Glc", "summary_of_the_method": "as §1"}, "[25]": {"target": "Neu5Ac(a2-3)Gal(b1-4)GlcNAc", "summary_of_the_method": "as §1"}, "[26]": {"target": "Neu5Ac(a2-3)Gal(b1-4)GlcNAc(b1-2)Man", "summary_of_the_method": "as §1"}, "[27]": {"target": "Neu5Ac(a2-3)Gal(b1-4)GlcNAc(b1-2)Man(a1-3)[GlcNAc(b1-4)][Neu5Ac(a2-3)Gal(b1-4)GlcNAc(b1-2)Man(a1-6)]Man(b1-4)GlcNAc(b1-4)GlcNAc", "summary_of_the_method": "as §1"}, "[28]": {"target": "Neu5Ac(a2-3)Gal(b1-4)GlcNAc(b1-2)Man(a1-3)[Neu5Ac(a2-3)Gal(b1-4)GlcNAc(b1-2)Man(a1-6)]Man(b1-4)GlcNAc(b1-4)GlcNAc", "summary_of_the_method": "as §1"}, "[29]": {"target": "Neu5Ac(a2-3)Gal(b1-4)GlcNAc(b1-2)Man(a1-3)[Neu5Ac(a2-3)Gal(b1-4)GlcNAc(b1-2)Man(a1-6)]Man(b1-4)GlcNAc(b1-4)[Fuc(a1-6)]GlcNAc", "summary_of_the_method": "as §1"}, "[30]": {"target": "Neu5Ac(a2-3)Gal(b1-4)GlcNAc(b1-2)Man(a1-3)[Neu5Ac(a2-6)Gal(b1-4)GlcNAc(b1-2)Man(a1-6)]Man(b1-4)GlcNAc(b1-4)GlcNAc", "summary_of_the_method": "as §1"}, "[31]": {"target": "Neu5Ac(a2-3)Gal(b1-4)GlcNAc(b1-2)[Neu5Ac(a2-3)Gal(b1-4)GlcNAc(b1-4)]Man(a1-3)[GlcNAc(b1-4)][Neu5Ac(a2-3)Gal(b1-4)GlcNAc(b1-2)[Neu5Ac(a2-3)Gal(b1-4)GlcNAc(b1-6)]Man(a1-6)]Man(b1-4)GlcNAc(b1-4)GlcNAc", "summary_of_the_method": "as §1"}, "[32]": {"target": "Neu5Ac(a2-3)Gal(b1-4)GlcNAc(b1-2)[Neu5Ac(a2-3)Gal(b1-4)GlcNAc(b1-4)]Man(a1-3)[GlcNAc(b1-4)][Neu5Ac(a2-3)Gal(b1-4)GlcNAc(b1-4)Man(a1-6)]Man(b1-4)GlcNAc(b1-4)GlcNAc", "summary_of_the_method": "as §1"}, "[33]": {"target": "Neu5Ac(a2-3)Gal(b1-4)GlcNAc(b1-2)[Neu5Ac(a2-3)Gal(b1-4)GlcNAc(b1-6)]Man(a1-6)[Neu5Ac(a2-3)Gal(b1-4)GlcNAc(b1-2)Man(a1-3)]Man(b1-4)GlcNAc(b1-4)GlcNAc", "summary_of_the_method": "as §1"}, "[34]": {"target": "Neu5Ac(a2-3)Gal(b1-4)GlcNAc(b1-2)[Neu5Ac(a2-3)Gal(b1-4)GlcNAc(b1-6)]Man(a1-6)[Neu5Ac(a2-3)Gal(b1-4)GlcNAc(b1-2)Man(a1-3)][GlcNAc(b1-4)]Man(b1-4)GlcNAc(b1-4)GlcNAc", "summary_of_the_method": "as §1"}, "[35]": {"target": "Neu5Ac(a2-3)Gal(b1-4)GlcNAc(b1-3)Gal", "summary_of_the_method": "as §1"}, "[36]": {"target": "Neu5Ac(a2-3)Gal(b1-4)GlcNAc(b1-3)Gal(b1-3)GlcNAc", "summary_of_the_method": "as §1"}, "[37]": {"target": "Neu5Ac(a2-3)Gal(b1-4)GlcNAc(b1-3)Gal(b1-4)GlcNAc", "summary_of_the_method": "as §1"}},
  "note": "The other results are listed elsewhere or left out.",
  "data": [
    {"binder": "AT3G09350(27) (Arabidopsis thaliana), Q84J81 (protein) MAKDGPNWDGLLKWSLSHADGTRPTRQLSEEDRKWFMEAMQSQTVDVVKRMKEITLVMQTPEQVLVEHGVTPEDIQDLLDELQEHVESIDMANDLHSIGGLVPLLSFLKNSHANIRAKAADVVSTIVQNNPRSQELVMETNALESLLSNFTSDTDIHARTQALGAISSLIRHNKPGVTAFKLANGYAGLRDALASDSVRFQRKALNLLQYLLQEDDSDRSIATGLGFPRVMMHLASSDDAEIREAALRGLLELSREKNDGSSSIDKSDEKLRQLLEERIKGITLMSQEDLETVKEERQLVDLLWSICYNEPSSLREKGLVVLPGEDALPPDVASKLFEPPLRASAANRNATEKKDEPMKLLGP", "values": [
      {"measurement": "glycan array binding signal (z-score)", "setting": "[1]", "result": -0.483},
      {"measurement": "glycan array binding signal (z-score)", "setting": "[2]", "result": -0.387},
      {"measurement": "glycan array binding signal (z-score)", "setting": "[3]", "result": 0.007},
      {"measurement": "glycan array binding signal (z-score)", "setting": "[4]", "result": 0.721},
      {"measurement": "glycan array binding signal (z-score)", "setting": "[5]", "result": -0.601},
      {"measurement": "glycan array binding signal (z-score)", "setting": "[6]", "result": -0.398},
      {"measurement": "glycan array binding signal (z-score)", "setting": "[7]", "result": -0.447},
      {"measurement": "glycan array binding signal (z-score)", "setting": "[8]", "result": -0.592},
      {"measurement": "glycan array binding signal (z-score)", "setting": "[9]", "result": -0.8},
      {"measurement": "glycan array binding signal (z-score)", "setting": "[10]", "result": -0.267},
      {"measurement": "glycan array binding signal (z-score)", "setting": "[11]", "result": -0.473},
      {"measurement": "glycan array binding signal (z-score)", "setting": "[12]", "result": 0.71},
      {"measurement": "glycan array binding signal (z-score)", "setting": "[13]", "result": 0.16},
      {"measurement": "glycan array binding signal (z-score)", "setting": "[14]", "result": -0.46},
      {"measurement": "glycan array binding signal (z-score)", "setting": "[15]", "result": -0.837},
      {"measurement": "glycan array binding signal (z-score)", "setting": "[16]", "result": -0.472},
      {"measurement": "glycan array binding signal (z-score)", "setting": "[17]", "result": -0.897},
      {"measurement": "glycan array binding signal (z-score)", "setting": "[18]", "result": -0.449},
      {"measurement": "glycan array binding signal (z-score)", "setting": "[19]", "result": 0.414},
      {"measurement": "glycan array binding signal (z-score)", "setting": "[20]", "result": 0.624},
      {"measurement": "glycan array binding signal (z-score)", "setting": "[21]", "result": -0.317},
      {"measurement": "glycan array binding signal (z-score)", "setting": "[22]", "result": 0.102},
      {"measurement": "glycan array binding signal (z-score)", "setting": "[23]", "result": -0.42},
      {"measurement": "glycan array binding signal (z-score)", "setting": "[24]", "result": 0.222},
      {"measurement": "glycan array binding signal (z-score)", "setting": "[25]", "result": 0.003},
      {"measurement": "glycan array binding signal (z-score)", "setting": "[26]", "result": 0.291},
      {"measurement": "glycan array binding signal (z-score)", "setting": "[27]", "result": -1.05},
      {"measurement": "glycan array binding signal (z-score)", "setting": "[28]", "result": -0.557},
      {"measurement": "glycan array binding signal (z-score)", "setting": "[29]", "result": 0.697},
      {"measurement": "glycan array binding signal (z-score)", "setting": "[30]", "result": -0.666},
      {"measurement": "glycan array binding signal (z-score)", "setting": "[31]", "result": -0.295},
      {"measurement": "glycan array binding signal (z-score)", "setting": "[32]", "result": -0.559},
      {"measurement": "glycan array binding signal (z-score)", "setting": "[33]", "result": -0.269},
      {"measurement": "glycan array binding signal (z-score)", "setting": "[34]", "result": -0.435},
      {"measurement": "glycan array binding signal (z-score)", "setting": "[35]", "result": -0.392},
      {"measurement": "glycan array binding signal (z-score)", "setting": "[36]", "result": 0.404},
      {"measurement": "glycan array binding signal (z-score)", "setting": "[37]", "result": -0.174}
    ]}
  ]
}
